From paper PMC10286485

The chains behind the UniProt entries cited, without tags or fusion partners. Residues count along the entry.
UniProt Q61221: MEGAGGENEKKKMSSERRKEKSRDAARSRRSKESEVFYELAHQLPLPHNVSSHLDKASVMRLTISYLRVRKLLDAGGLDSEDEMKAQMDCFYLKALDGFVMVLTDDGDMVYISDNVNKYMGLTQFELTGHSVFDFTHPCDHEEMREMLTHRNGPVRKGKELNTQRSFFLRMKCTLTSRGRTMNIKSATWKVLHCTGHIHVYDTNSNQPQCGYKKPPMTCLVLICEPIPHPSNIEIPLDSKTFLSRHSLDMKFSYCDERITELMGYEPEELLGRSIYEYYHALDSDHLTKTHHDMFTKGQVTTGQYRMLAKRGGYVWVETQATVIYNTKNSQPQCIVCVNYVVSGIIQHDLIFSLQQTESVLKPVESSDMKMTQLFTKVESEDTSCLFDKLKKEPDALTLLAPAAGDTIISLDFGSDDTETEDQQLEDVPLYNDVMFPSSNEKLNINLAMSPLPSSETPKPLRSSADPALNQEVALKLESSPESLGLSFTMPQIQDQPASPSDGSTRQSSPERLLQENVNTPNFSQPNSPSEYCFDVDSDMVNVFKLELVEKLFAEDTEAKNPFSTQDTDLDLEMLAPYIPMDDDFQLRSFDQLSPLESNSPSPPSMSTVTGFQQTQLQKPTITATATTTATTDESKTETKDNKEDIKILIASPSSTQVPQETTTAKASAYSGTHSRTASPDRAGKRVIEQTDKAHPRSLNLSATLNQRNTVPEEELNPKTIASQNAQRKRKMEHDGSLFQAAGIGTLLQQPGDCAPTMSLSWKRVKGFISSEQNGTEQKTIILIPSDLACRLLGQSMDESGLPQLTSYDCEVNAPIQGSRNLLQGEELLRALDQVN
UniProt P20029, residues 20-655: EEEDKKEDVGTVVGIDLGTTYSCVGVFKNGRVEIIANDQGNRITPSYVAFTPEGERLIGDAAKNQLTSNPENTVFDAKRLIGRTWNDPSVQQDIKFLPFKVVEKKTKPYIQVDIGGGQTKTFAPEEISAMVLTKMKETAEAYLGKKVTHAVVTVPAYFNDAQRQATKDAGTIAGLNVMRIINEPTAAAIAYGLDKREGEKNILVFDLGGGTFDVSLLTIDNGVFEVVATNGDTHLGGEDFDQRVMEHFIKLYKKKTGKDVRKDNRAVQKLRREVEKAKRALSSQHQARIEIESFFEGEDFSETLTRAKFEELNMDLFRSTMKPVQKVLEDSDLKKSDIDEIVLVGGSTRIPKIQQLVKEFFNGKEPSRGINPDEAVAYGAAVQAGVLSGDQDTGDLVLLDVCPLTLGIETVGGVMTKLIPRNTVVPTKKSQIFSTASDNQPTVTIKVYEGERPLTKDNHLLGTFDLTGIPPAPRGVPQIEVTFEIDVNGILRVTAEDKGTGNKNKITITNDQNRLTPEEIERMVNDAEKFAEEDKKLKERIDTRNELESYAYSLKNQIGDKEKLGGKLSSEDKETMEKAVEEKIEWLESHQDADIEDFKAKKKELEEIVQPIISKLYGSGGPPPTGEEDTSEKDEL

Target: Hypoxia-Inducible Factor 1α (mouse (endogenous in J774)) (UniProt Q61221)
Assay: affinity purification with mass spectrometry; HIF1α immunoprecipitated from 2 mg lysate of J774 cells under hypoxia (2% O2, 8 h); SDS-PAGE gel fragments analysed by tandem MS/MS

Substance: Glucose-Regulated Protein-78 (from UniProt P20029 20-655)
- binding: binds

No constants are given. Whether binding was seen depends on the method and setting. In cells and extracts the contact can be indirect. These calls come from enrichment with a bait or labelling near it, and not all partners need be listed.
